These are yes or no findings as the source states them, for the method shown. Some results given as binding are weak or reduced against the parent protein; the word gives no strength.
Biological target: human BCMA protein (Octet; construct not stated) (human) (UniProt Q02223)
Assay: Octet (BLI), human BCMA

Amino acid sequences for entries named in this document (tags omitted). A change or cut given only in a name is not applied to a line headed by its entry.
UniProt Q02223: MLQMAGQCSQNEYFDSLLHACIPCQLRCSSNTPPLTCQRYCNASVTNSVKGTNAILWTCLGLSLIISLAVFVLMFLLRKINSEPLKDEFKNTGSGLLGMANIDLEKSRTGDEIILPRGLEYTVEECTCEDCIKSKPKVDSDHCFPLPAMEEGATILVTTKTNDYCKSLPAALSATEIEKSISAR

| binding | Binder |
| --- | --- |
| binds | Ab 2, lead anti-BCMA clone of Table 4 (antibody, V domains shown) VH: QITLRESGGDVVQPGRSLRLSCAASGFTFSSYAIHWVRQAPGKGLEWVAVTWHDGSNKYYAESVMGRFTISRDNSKNTLYLHMNSLRAEDTGVYYCARAKFGEPQYFQHWGQGTLVTVSS VL: DIVMTQSPSFLSASVGDRVTITCRASQGINNYLAWYQQKPGIAPKLLIYAASTLQSGVPSRFGGSGSGTEFTLTISSLQPEDFATYYCQQLKSYPFTFGPGTKVEIK |
| binds | Ab 3, lead anti-BCMA clone of Table 4 (antibody, V domains shown) VH: EVQLVESGGDVVQPGRSLRLSCAASGFTFSSYAIHWVRQAPGKGLEWVAVTWHDGSNKYYAESVMGRFTISRDNSKNTLYLHMNSLRAEDTGVYYCARAKFGEPQYFQHWGQGTTVTVSS VL: DIVMTQSPSFLSASVGDRVTITCRASQGISSYLAWYQQKPGKAPKLLIYAASTLQSGVPSRFSGSGSGTEFTLTISSLQPEDFATYYCQQLNSYPFTFGPGTKVDIK |

— patent US20240350544A1 (Takeda / Millennium, published 2024)
